According to the supplement of paper PMC8728848:
This is one part of the list.

Experiments:
Assay in all cases: glycan array binding signal (z-score within array); higher = stronger binding
Conditions in all cases: glycan notation: IUPAC condensed, linker removed
[1] = target: Fuc(a1-2)Gal(b1-4)GlcNAc(b1-3)Gal(b1-4)GlcNAc(b1-2)Man(a1-3)[Fuc(a1-2)Gal(b1-4)GlcNAc(b1-3)Gal(b1-4)GlcNAc(b1-2)Man(a1-6)]Man(b1-4)GlcNAc(b1-4)GlcNAc
Procedure, shortened: (§1)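 The binding signal is a Z-score computed within each array. Data were drawn from 3228 arrays in the Consortium for Functional Glycomics database, restricted to those with a known protein sequence. Scores were averaged over arrays of the same protein sequence at different concentrations or buffers, and over linkers, and negative values can be taken as non-binding.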

[2] = target: Fuc(a1-2)Gal(b1-4)GlcNAc(b1-3)Gal(b1-4)GlcNAc(b1-3)Gal(b1-4)GlcNAc
Procedure, shortened: as §1

[3] = target: Fuc(a1-2)Gal(b1-4)GlcNAc(b1-3)GalNAc
Procedure, shortened: as §1

[4] = target: Fuc(a1-2)Gal(b1-4)GlcNAc(b1-3)[Fuc(a1-2)Gal(b1-4)GlcNAc(b1-6)]GalNAc
Procedure, shortened: as §1

[5] = target: Fuc(a1-2)Gal(b1-4)GlcNAc(b1-3)[Fuc(a1-3)[Gal(b1-4)]GlcNAc(b1-6)]Gal(b1-4)Glc
Procedure, shortened: as §1

[6] = target: Fuc(a1-2)Gal(b1-4)GlcNAc(b1-6)GalNAc
Procedure, shortened: as §1

[7] = target: Fuc(a1-2)Gal(b1-4)GlcNAc6S
Procedure, shortened: as §1

[8] = target: Fuc(a1-2)Gal(b1-4)[Fuc(a1-3)]GlcNAc
Procedure, shortened: as §1

[9] = target: Fuc(a1-2)Gal(b1-4)[Fuc(a1-3)]GlcNAc(b1-2)Man(a1-3)[Fuc(a1-2)Gal(b1-4)[Fuc(a1-3)]GlcNAc(b1-2)Man(a1-6)]Man(b1-4)GlcNAc(b1-4)[Fuc(a1-6)]GlcNAc
Procedure, shortened: as §1

[10] = target: Fuc(a1-2)Gal(b1-4)[Fuc(a1-3)]GlcNAc(b1-2)[Fuc(a1-2)Gal(b1-4)[Fuc(a1-3)]GlcNAc(b1-4)]Man(a1-3)[Fuc(a1-2)Gal(b1-4)[Fuc(a1-3)]GlcNAc(b1-2)Man(a1-6)]Man(b1-4)GlcNAc(b1-4)GlcNAc
Procedure, shortened: as §1

[11] = target: Fuc(a1-2)Gal(b1-4)[Fuc(a1-3)]GlcNAc(b1-3)Gal(b1-4)[Fuc(a1-3)]GlcNAc
Procedure, shortened: as §1

[12] = target: Fuc(a1-2)Gal(b1-4)[Fuc(a1-3)]GlcNAc(b1-3)Gal(b1-4)[Fuc(a1-3)]GlcNAc(b1-3)Gal(b1-4)[Fuc(a1-3)]GlcNAc
Procedure, shortened: as §1

[13] = target: Fuc(a1-2)Gal(b1-4)[Fuc(a1-3)]GlcNAc(b1-3)GalNAc
Procedure, shortened: as §1

[14] = target: Fuc(a1-2)Gal(b1-4)[Fuc(a1-3)]GlcNAc(b1-3)[Neu5Ac(a2-6)Gal(b1-4)GlcNAc(b1-6)]Gal(b1-4)Glc
Procedure, shortened: as §1

[15] = target: Fuc(a1-2)Gal3S(b1-4)GlcNAc
Procedure, shortened: as §1

[16] = target: Fuc(a1-2)Gal6S(b1-3)GlcNAc
Procedure, shortened: as §1

[17] = target: Fuc(a1-2)Gal6S(b1-3)GlcNAc6S
Procedure, shortened: as §1

Fuc(a1-2)Gal6S(b1-4)Glc = target: Fuc(a1-2)Gal6S(b1-4)Glc
Procedure, shortened: as §1

[18] = target: Fuc(a1-2)Gal6S(b1-4)Glc6S
Procedure, shortened: as §1

Fuc(a1-2)[Gal(a1-3)]Gal = target: Fuc(a1-2)[Gal(a1-3)]Gal
Procedure, shortened: as §1

[19] = target: Fuc(a1-2)[Gal(a1-3)]Gal(b1-3)GalNAc
Procedure, shortened: as §1

[20] = target: Fuc(a1-2)[Gal(a1-3)]Gal(b1-3)GalNAc(b1-3)Gal(a1-4)Gal(b1-4)Glc
Procedure, shortened: as §1

[21] = target: Fuc(a1-2)[Gal(a1-3)]Gal(b1-3)GlcNAc
Procedure, shortened: as §1

[22] = target: Fuc(a1-2)[Gal(a1-3)]Gal(b1-3)GlcNAc(b1-2)Man(a1-3)[Fuc(a1-2)[Gal(a1-3)]Gal(b1-3)GlcNAc(b1-2)Man(a1-6)]Man(b1-4)GlcNAc(b1-4)GlcNAc
Procedure, shortened: as §1

[23] = target: Fuc(a1-2)[Gal(a1-3)]Gal(b1-3)GlcNAc(b1-2)Man(a1-3)[Fuc(a1-2)[Gal(a1-3)]Gal(b1-3)GlcNAc(b1-2)Man(a1-6)]Man(b1-4)GlcNAc(b1-4)[Fuc(a1-6)]GlcNAc
Procedure, shortened: as §1

[24] = target: Fuc(a1-2)[Gal(a1-3)]Gal(b1-3)GlcNAc(b1-3)GalNAc
Procedure, shortened: as §1

[25] = target: Fuc(a1-2)[Gal(a1-3)]Gal(b1-3)GlcNAc(b1-6)GalNAc
Procedure, shortened: as §1

[26] = target: Fuc(a1-2)[Gal(a1-3)]Gal(b1-4)Glc
Procedure, shortened: as §1

[27] = target: Fuc(a1-2)[Gal(a1-3)]Gal(b1-4)GlcNAc
Procedure, shortened: as §1

[28] = target: Fuc(a1-2)[Gal(a1-3)]Gal(b1-4)GlcNAc(b1-2)Man
Procedure, shortened: as §1

[29] = target: Fuc(a1-2)[Gal(a1-3)]Gal(b1-4)GlcNAc(b1-2)Man(a1-3)[Fuc(a1-2)[Gal(a1-3)]Gal(b1-4)GlcNAc(b1-2)Man(a1-6)]Man(b1-4)GlcNAc(b1-4)GlcNAc
Procedure, shortened: as §1

[30] = target: Fuc(a1-2)[Gal(a1-3)]Gal(b1-4)GlcNAc(b1-2)Man(a1-3)[Fuc(a1-2)[Gal(a1-3)]Gal(b1-4)GlcNAc(b1-2)Man(a1-6)]Man(b1-4)GlcNAc(b1-4)[Fuc(a1-6)]GlcNAc
Procedure, shortened: as §1

[31] = target: Fuc(a1-2)[Gal(a1-3)]Gal(b1-4)GlcNAc(b1-3)GalNAc
Procedure, shortened: as §1

[32] = target: Fuc(a1-2)[Gal(a1-3)]Gal(b1-4)GlcNAc(b1-3)[Fuc(a1-2)[Gal(a1-3)]Gal(b1-4)GlcNAc(b1-6)]GalNAc
Procedure, shortened: as §1

[33] = target: Fuc(a1-2)[Gal(a1-3)]Gal(b1-4)GlcNAc(b1-6)GalNAc
Procedure, shortened: as §1

[34] = target: Fuc(a1-2)[Gal(a1-3)]Gal(b1-4)[Fuc(a1-3)]Glc
Procedure, shortened: as §1

[35] = target: Fuc(a1-2)[Gal(a1-3)]Gal(b1-4)[Fuc(a1-3)]GlcNAc
Procedure, shortened: as §1

[36] = target: Fuc(a1-2)[Gal(a1-3)]Gal(b1-4)[Fuc(a1-3)]GlcNAc(b1-3)GalNAc
Procedure, shortened: as §1

[37] = target: Fuc(a1-2)[Gal(a1-4)]Gal(b1-4)GlcNAc
Procedure, shortened: as §1

[38] = target: Fuc(a1-2)[GalNAc(a1-3)]Gal
Procedure, shortened: as §1

[39] = target: Fuc(a1-2)[GalNAc(a1-3)]Gal(b1-3)GalNAc(a1-3)[Fuc(a1-2)]Gal(b1-4)GlcNAc
Procedure, shortened: as §1

[40] = target: Fuc(a1-2)[GalNAc(a1-3)]Gal(b1-3)GalNAc(b1-3)Gal(a1-4)Gal(b1-4)Glc
Procedure, shortened: as §1

[41] = target: Fuc(a1-2)[GalNAc(a1-3)]Gal(b1-3)GlcNAc
Procedure, shortened: as §1

[42] = target: Fuc(a1-2)[GalNAc(a1-3)]Gal(b1-3)GlcNAc(b1-2)Man(a1-3)[Fuc(a1-2)[GalNAc(a1-3)]Gal(b1-3)GlcNAc(b1-2)Man(a1-6)]Man(b1-4)GlcNAc(b1-4)GlcNAc
Procedure, shortened: as §1

[43] = target: Fuc(a1-2)[GalNAc(a1-3)]Gal(b1-3)GlcNAc(b1-2)Man(a1-3)[Fuc(a1-2)[GalNAc(a1-3)]Gal(b1-3)GlcNAc(b1-2)Man(a1-6)]Man(b1-4)GlcNAc(b1-4)[Fuc(a1-6)]GlcNAc
Procedure, shortened: as §1

B1: CD34 (Homo sapiens), P28906 (protein)
chain: MGSSHHHHHHSSGLVPRGSHMSTSLATSPTKPYTSSSPILSDIKAEIKCSGIREVKLTQGICLEQNKTSSCAEFKKDRGEGLARVLCGEEQADADAGAQVCSLLLAQSEVRPQCLLLVLANRTEISSKLQLMKKHQSDLKKLGILDFTEQDVASHQSYSQKT
In the case of B1, the “glycan array binding signal (z-score)” value [1] is reported as 1.17, the “glycan array binding signal (z-score)” value [2] is reported as 0.507 and the “glycan array binding signal (z-score)” value [3] is reported as 0.116. The “glycan array binding signal (z-score)” value [4] was 0.019, the “glycan array binding signal (z-score)” value [5] was 0.14 and the “glycan array binding signal (z-score)” value [6] was 0.194. For the same binder, the “glycan array binding signal (z-score)” value [7] was 0.24, the “glycan array binding signal (z-score)” value [8] was 0.256 and the “glycan array binding signal (z-score)” value [9] was 0.227. The “glycan array binding signal (z-score)” value [10] was 1.72, the “glycan array binding signal (z-score)” value [11] was 0.113 and the “glycan array binding signal (z-score)” value [12] was -0.143. The “glycan array binding signal (z-score)” value [13] was 0.392, the “glycan array binding signal (z-score)” value [14] was -0.134 and the “glycan array binding signal (z-score)” value [15] was -0.824. The “glycan array binding signal (z-score)” value [16] was 0.1, the “glycan array binding signal (z-score)” value [17] was 0.106 and the “glycan array binding signal (z-score)” value (Fuc(a1-2)Gal6S(b1-4)Glc) was 0.088. For the same binder, the “glycan array binding signal (z-score)” value [18] was -0.503, the “glycan array binding signal (z-score)” value (Fuc(a1-2)[Gal(a1-3)]Gal) was -0.195 and the “glycan array binding signal (z-score)” value [19] was 0.032. The “glycan array binding signal (z-score)” value [20] was -0.319, the “glycan array binding signal (z-score)” value [21] was -0.767 and the “glycan array binding signal (z-score)” value [22] was -0.09. The “glycan array binding signal (z-score)” value [23] was 0.12, the “glycan array binding signal (z-score)” value [24] was -0.601 and the “glycan array binding signal (z-score)” value [25] was -0.219. The “glycan array binding signal (z-score)” value [26] was 0.606, the “glycan array binding signal (z-score)” value [27] was -0.817 and the “glycan array binding signal (z-score)” value [28] was 0.821. For the same binder, the “glycan array binding signal (z-score)” value [29] was -0.462, the “glycan array binding signal (z-score)” value [30] was -0.5 and the “glycan array binding signal (z-score)” value [31] was 0.323. For the same binder, the “glycan array binding signal (z-score)” value [32] was 0.293, the “glycan array binding signal (z-score)” value [33] was 0.6 and the “glycan array binding signal (z-score)” value [34] was -0.694. The “glycan array binding signal (z-score)” value [35] was 0.796, the “glycan array binding signal (z-score)” value [36] was -0.271 and the “glycan array binding signal (z-score)” value [37] was -0.087. The “glycan array binding signal (z-score)” value [38] was 0.266, the “glycan array binding signal (z-score)” value [39] was -1.21 and the “glycan array binding signal (z-score)” value [40] was -0.382. The “glycan array binding signal (z-score)” value [41] was 0.939, the “glycan array binding signal (z-score)” value [42] was -0.362 and the “glycan array binding signal (z-score)” value [43] was 0.64.
